Measured values from patent US9833487B2, “Composition for preventing and treating arthritic diseases” (priority 2008, dated 2017).
For at least one compound, name, drawing or mass did not settle the structure.

Experiments:
[1] = system: type II collagen mRNA in cartilage tissue; test: Gene expression of Col II (RT-PCR); type: cell-based, human; settings: IL-1α treated cartilage tissue; FIG. 13
Method: (§1) The joint cartilage of human was provided from the patient who had taken artificial joint surgery (Orthopedics Surgery Dep. of Kyunghee Medical Center). […] The tissue was washed with the medium several times and then the articular tissue was cultured at 37° C. in humidified […] incubator. 1 or 2 days after the incubation, the medium was replaced with new basic medium containing inactivated 5% fetal bovine serum with heat treatment, 10 mM HEPES, and 100 unit/ml of penicillin-streptomycin, and 30 mg of the chondrocyte was transferred to 48-well plate. After culturing for 1 hour, 5 ng/μl of interleukin-1α (IL-1α, R&D system, USA) was added to the medium to induce inflammation and various concentrations of test sample (KM-1), ETCP (SK Chemicals), Celecoxib (CEL, Pfizer Co., USA), and Glucosamine (GLUCO, Sigma Co., USA), i.e., 0.1, 0.2, and 0.4 mg/ml, were added thereto respectively. […] The stained product was washed for 10 minutes with distilled water and the result was determined at UV wavelength (260 nm). The expression of proteoglycan and Col II gene collected from the cartilage tissue and chondrocytic cell of rabbit in above Reference Example 3 was determined and the test was performed by using reverse transcription polymerase chain reaction (RT-PCR) with the method disclosed in Reference Example 4.

pERK = test: MAPK phosphorylation (western blot), pERK; type: cell-based, human; settings: FIG. 18
[2] = system: GAG degradation in human articular cartilage tissue; test: Dissociation of glycosaminoglycan (DMB assay), IL-1α induced cartilage tissue; type: cell-based; settings: 0.1, 0.2, 0.4 mg/ml, FIG. 12
Method: The joint cartilage of human was provided from the patient who had taken artificial joint surgery (Orthopedics Surgery Dep. of Kyunghee Medical Center). […] The tissue was washed with the medium several times and then the articular tissue was cultured at 37° C. in humidified […] incubator. 1 or 2 days after the incubation, the medium was replaced with new basic medium containing inactivated 5% fetal bovine serum with heat treatment, 10 mM HEPES, and 100 unit/ml of penicillin-streptomycin, and 30 mg of the chondrocyte was transferred to 48-well plate. After culturing for 1 hour, 5 ng/μl of interleukin-1α (IL-1α, R&D system, USA) was added to the medium to induce inflammation and various concentrations of test sample (KM-1), ETCP (SK Chemicals), Celecoxib (CEL, Pfizer Co., USA), and Glucosamine (GLUCO, Sigma Co., USA), i.e., 0.1, 0.2, and 0.4 mg/ml, were added thereto respectively. […] The concentration of GAG in the culture medium of cartilage tissue incubated with the procedure disclosed in Reference Example 3 was measured by determining the amount of polyanionic substance produced by being reacted with blyscan dye solution and chondroitin sulfate was used as a standard. […] The amount of spectroscopic GAG was determined at 540 nm and the inhibition rate was expressed based on the amount of degradated GAG induced by interleukin-1α (IL-1α).

MMP-13 (collagenase-13) = test: MMP-13 activity in human cartilage tissue medium; type: cell-based; settings: FIG. 14
Method: (§2) The joint cartilage of human was provided from the patient who had taken artificial joint surgery (Orthopedics Surgery Dep. of Kyunghee Medical Center). […] The tissue was washed with the medium several times and then the articular tissue was cultured at 37° C. in humidified […] incubator. 1 or 2 days after the incubation, the medium was replaced with new basic medium containing inactivated 5% fetal bovine serum with heat treatment, 10 mM HEPES, and 100 unit/ml of penicillin-streptomycin, and 30 mg of the chondrocyte was transferred to 48-well plate. After culturing for 1 hour, 5 ng/μl of interleukin-1α (IL-1α, R&D system, USA) was added to the medium to induce inflammation and various concentrations of test sample (KM-1), ETCP (SK Chemicals), Celecoxib (CEL, Pfizer Co., USA), and Glucosamine (GLUCO, Sigma Co., USA), i.e., 0.1, 0.2, and 0.4 mg/ml, were added thereto respectively. […] In order to measure proteolytic activity, each 25 μl of medium was added to 96-well plate with 50 μl of the substrate to incubate at 37° C. for 1 hr and the optical density was measured by ELISA reader (Molecular devices, USA) at 450 nm. The activity of each sample on MMP-1 and MMP-13 was determined by calculating the MMP (%) of medium in each well.

pJNK = test: MAPK phosphorylation (western blot), pJNK; type: cell-based, human; settings: FIG. 18
[3] = system: proteoglycan mRNA in cartilage tissue; test: Gene expression of proteoglycan (RT-PCR); type: cell-based, human; settings: IL-1α treated cartilage tissue; FIG. 13
Method: as §1

pp 38 = test: MAPK phosphorylation (western blot), pp38; type: cell-based, human; settings: FIG. 18
MMP-1 (collagenase-1) = test: MMP-1 activity in human cartilage tissue medium; type: cell-based; settings: FIG. 15
Method: as §2

O=c1c2cc(O)c(O)cc2oc2cc(O)c([C@@H]3O[C@H](CO)[C@@H](O)[C@H](O)[C@H]3O)c(O)c12 [mangiferin]
mRNA gene expression of type II collagen [1]: increased mRNA gene expression of proteoglycan and type II collagen | inhibition of pERK (pERK): inhibited the activity of pERK | inhibition of the degradation of GAG [2]: potently inhibited the degradation of GAG | inhibition of MMP-13 activity (MMP-13 (collagenase-13)): significantly inhibited the activity of collagenase MMP-1 and MMP-13 in a dose dependent manner | inhibition of pJNK (pJNK): potently inhibited | mRNA gene expression of proteoglycan [3]: increased mRNA gene expression of proteoglycan and type II collagen | inhibition of pp 38 (pp 38): potently inhibited | inhibition of MMP-1 activity (MMP-1 (collagenase-1)): significantly inhibited the activity of collagenase MMP-1 and MMP-13 in a dose dependent manner
